# From PMC8942850 (Nature, 2022)
# Test: Fmoc solid-phase peptide synthesis; Fmoc-Rink amide resin
# Conditions: whole synthesis
substance,measurement,setting,value
TAMRA-D-R8,final HPLC purity,HPLC and MS,99%
same,isolated yield,overall,17%
